Source: publication PMC11540652
Results are given in words; binding and its absence hold for the method and conditions named. Binding seen in cells or lysates may run through a third protein. Some entries that bind do so weakly or less than the wild type. Sequences can lack the tags named with a protein.

Legend:
Assay in all cases: co-IP
[1] = biological target: 6×Myc-N(80–419) (SARS-CoV-2) (UniProt P0DTC9)
[2] = biological target: 6×Myc-N(270–419) (SARS-CoV-2) (UniProt P0DTC9)
[3] = biological target: 6×Myc-N(200–419) (SARS-CoV-2) (UniProt P0DTC9)

Measured: binding

B1: HA-Herc5 (enzyme, UniProt Q9UII4 1-1024)
chain: MERRSRRKSRRNGRSTAGKAAATQPAKSPGAQLWLFPSAAGLHRALLRRVEVTRQLCCSPGRLAVLERGGAGVQVHQLLAGSGGARTPKCIKLGKNMKIHSVDQGAEHMLILSSDGKPFEYDNYSMKHLRFESILQEKKIIQITCGDYHSLALSKGGELFAWGQNLHGQLGVGRKFPSTTTPQIVEHLAGVPLAQISAGEAHSMALSMSGNIYSWGKNECGQLGLGHTESKDDPSLIEGLDNQKVEFVACGGSHSALLTQDGLLFTFGAGKHGQLGHNSTQNELRPCLVAELVGYRVTQIACGRWHTLAYVSDLGKVFSFGSGKDGQLGNGGTRDQLMPLPVKVSSSEELKLESHTSEKELIMIAGGNQSILLWIKKENSYVNLKRTIPTLNEGTVKRWIADVETKRWQSTKREIQEIFSSPACLTGSFLRKRRTTEMMPVYLDLNKARNIFKELTQKDWITNMITTCLKDNLLKRLPFHSPPQEALEIFFLLPECPMMHISNNWESLVVPFAKVVCKMSDQSSLVLEEYWATLQESTFSKLVQMFKTAVICQLDYWDESAEENGNVQALLEMLKKLHRVNQVKCQLPESIFQVDELLHRLNFFVEVCRRYLWKMTVDASENVQCCVIFSHFPFIFNNLSKIKLLHTDTLLKIESKKHKAYLRSAAIEEERESEFALRPTFDLTVRRNHLIEDVLNQLSQFENEDLRKELWVSFSGEIGYDLGGVKKEFFYCLFAEMIQPEYGMFMYPEGASCMWFPVKPKFEKKRYFFFGVLCGLSLFNCNVANLPFPLALFKKLLDQMPSLEDLKELSPDLGKNLQTLLDDEGDNFEEVFYIHFNVHWDRNDTNLIPNGSSITVNQTNKRDYVSKYINYIFNDSVKAVYEEFRRGFYKMCDEDIIKLFHPEELKDVIVGNTDYDWKTFEKNARYEPGYNSSHPTIVMFWKAFHKLTLEEKKKFLVFLTGTDRLQMKDLNNMKITFCCPESWNERDPIRALTCFSVLFLPKYSTMETVEEALQEAINNNRGFG
binds: all assays above
